This is one part of the list. Single values are uncertain, as repeats are few or missing.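 Cells were imaged in 1,536-well plates, and nuclei stained with an antibody against cleaved PARP were counted against all DNA-stained nuclei to give the apoptosis fraction. Screening doses were chosen to leave most cells alive, and resting and induced cleaved-PARP levels differ strongly between cell lines.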
Key:
Experiment in all cases: cleaved PARP positive nuclei fraction relative to DMSO control; melanoma cells; higher = more apoptosis
Settings in all cases: library dose: low library concentration; 72 h
501Mel = tested on: 501Mel
A101D = tested on: A101D
A2058 = tested on: A2058
A375 = tested on: A375
C32 = tested on: C32
CBRC008 = tested on: CBRC008 (line from a melanoma biopsy)
CBRC013 = tested on: CBRC013 (line from a melanoma biopsy)
CBRC014 = tested on: CBRC014 (line from a melanoma biopsy)
CBRC016 = tested on: CBRC016 (line from a melanoma biopsy)
CBRC017 = tested on: CBRC017 (line from a melanoma biopsy)
COLO792 = tested on: COLO792
COLO800 = tested on: COLO800
COLO829 = tested on: COLO829
G361 = tested on: G361
IPC-298 = tested on: IPC-298
IST-MEL1 = tested on: IST-MEL1
LB2518-MEL = tested on: LB2518-MEL
LOXIMVI = tested on: LOXIMVI
MEL-HO = tested on: MEL-HO

SMILES	cleaved PARP positive nuclei fraction (501Mel) [%]	cleaved PARP positive nuclei fraction (A101D) [%]	cleaved PARP positive nuclei fraction (A2058) [%]	cleaved PARP positive nuclei fraction (A375) [%]	cleaved PARP positive nuclei fraction (C32) [%]	cleaved PARP positive nuclei fraction (CBRC008) [%]	cleaved PARP positive nuclei fraction (CBRC013) [%]	cleaved PARP positive nuclei fraction (CBRC014) [%]	cleaved PARP positive nuclei fraction (CBRC016) [%]	cleaved PARP positive nuclei fraction (CBRC017) [%]	cleaved PARP positive nuclei fraction (COLO792) [%]	cleaved PARP positive nuclei fraction (COLO800) [%]	cleaved PARP positive nuclei fraction (COLO829) [%]	cleaved PARP positive nuclei fraction (G361) [%]	cleaved PARP positive nuclei fraction (IPC-298) [%]	cleaved PARP positive nuclei fraction (IST-MEL1) [%]	cleaved PARP positive nuclei fraction (LB2518-MEL) [%]	cleaved PARP positive nuclei fraction (LOXIMVI) [%]	cleaved PARP positive nuclei fraction (MEL-HO) [%]
COCC[n+]1c2c(n(Cc3cnccn3)c1C)C(=O)c1ccccc1C2=O + O=C(Nc1cccc(Cl)c1)Nc1ncc(CCNc2ncnc3ccsc23)s1 [SNS314] (first compound 0.0004 µM, partner dose 0.0008 µM)	83.3	20.3	181	126	60	1250	111	76.2	120	102	71	74.5	115	44.4	142	84.5	214	154	29.9
CO[C@@H]1[C@H](N(C)C(=O)c2ccccc2)C[C@H]2O[C@]1(C)n1c3ccccc3c3c4c(c5c6ccccc6n2c5c31)C(=O)NC4 [Midostaurin] + O=C(O)c1ccc(-c2c[nH]c3ncc(-c4ccccc4)cc23)cc1C1CCCC1 [GSK650394] (first compound 0.08 µM, partner dose 0.16 µM)	87.2	180	115	139	81.5	429	133	121	156	124	110	71.7	152	223	47.3	101	239	91	77.3
CC(=O)c1c(C)c2cnc(Nc3ccc(N4CCNCC4)cn3)nc2n(C2CCCC2)c1=O [palbociclib] + NC(=O)Nc1cc(-c2cccc(F)c2)sc1C(=O)N[C@H]1CCCNC1 [AZD7762] (first compound 0.04 µM, partner dose 0.02 µM)	119	52.9	103	254	61.6	197	81.4	102	64.9	97.7	102	100	28.2	223	71.3	110	24.5	139	38.3
C=CCNC1=C2C[C@@H](C)C[C@H](OC)[C@H](O)[C@@H](C)/C=C(\C)[C@H](OC(N)=O)[C@@H](OC)/C=C\C=C(/C)C(=O)NC(=CC1=O)C2=O [Tanespimycin] + NC(=O)Nc1cc(-c2cccc(F)c2)sc1C(=O)N[C@H]1CCCNC1 [AZD7762] (first compound 0.002 µM, partner dose 0.02 µM)	149	184	72.3	210	257	202	122	108	119	113	187	65.7	101	103	166	75.5	76.3	51.2	87
COc1cc(Nc2ncc(F)c(Nc3ccc4c(n3)NC(=O)C(C)(C)O4)n2)cc(OC)c1OC [Tamatinib] + O=C(Nc1cccc(Cl)c1)Nc1ncc(CCNc2ncnc3ccsc23)s1 [SNS314] (first compound 0.4 µM, partner dose 0.0008 µM)	460	416	85.4	104	103	94	125	93.5	119	108	199	50.1	133	78.5	52.8	65.2	242	97.5	33.8
COCC[n+]1c2c(n(Cc3cnccn3)c1C)C(=O)c1ccccc1C2=O + OCCn1cc(-c2cnc3nnn(Cc4ccc5ncccc5c4)c3n2)cn1 [PF04217903] (first compound 0.0004 µM, partner dose 1 µM)	135	558	130	132	47.9	973	119	69.3	70.1	109	14	184	92.8	83.5	56.9	346	70.2	65.6	180
CC1(C)NC(=O)N(c2ccc([N+](=O)[O-])c(C(F)(F)F)c2)C1=O [nilutamide] + Cc1cc(N2CCOCC2)cc2[nH]c(-c3c(NC[C@@H](O)c4cccc(Cl)c4)cc[nH]c3=O)nc12 [BMS536924] (first compound 1 µM, partner dose 0.2 µM)	101	83	65.8	179	117	389	115	103	68.7	83.5	82.3	152	259	271	91.5	62.3	87.2	53.3	139
C=CCNC1=C2C[C@@H](C)C[C@H](OC)[C@H](O)[C@@H](C)/C=C(\C)[C@H](OC(N)=O)[C@@H](OC)/C=C\C=C(/C)C(=O)NC(=CC1=O)C2=O [Tanespimycin] + Cc1ccc(NC(=O)c2cccc(N(C)C)c2)cc1NC(=O)c1ccc(O)cc1 [ZM336372] (first compound 0.002 µM, partner dose 2 µM)	45.5	43.7	94.1	102	87.9	148	79.6	105	237	107	87.4	126	83.2	31.4	58.5	102	159	36	72.5
CC(=O)c1c(C)c2cnc(Nc3ccc(N4CCNCC4)cn3)nc2n(C2CCCC2)c1=O [palbociclib] + COc1cc2c(Oc3ccc4[nH]c(C)cc4c3F)ncnc2cc1OCCCN1CCCC1 [cediranib] (first compound 0.04 µM, partner dose 0.4 µM)	154	47.2	160	55.7	33.6	81.3	102	89.8	246	136	224	66.2	45.5	96.3	49.8	37	130	148	141
C=CCNC1=C2C[C@@H](C)C[C@H](OC)[C@H](O)[C@@H](C)/C=C(\C)[C@H](OC(N)=O)[C@@H](OC)/C=C\C=C(/C)C(=O)NC(=CC1=O)C2=O [Tanespimycin] + COc1cc2c(Oc3ccc4[nH]c(C)cc4c3F)ncnc2cc1OCCCN1CCCC1 [cediranib] (first compound 0.002 µM, partner dose 0.4 µM)	51.7	41.3	79.8	82	23.9	889	105	81.3	68.3	89.9	136	88.8	224	113	45.6	63.2	148	101	34.3
OCCn1cc(-c2cnc3nnn(Cc4ccc5ncccc5c4)c3n2)cn1 + COc1cc2c(Oc3ccc4[nH]c(C)cc4c3F)ncnc2cc1OCCCN1CCCC1 [cediranib] (first compound 1 µM, partner dose 0.4 µM)	142	36.4	76.1	117	143	124	94.6	85.1	41.5	128	80.9	109	217	138	46.7	32.6	193	31.5	90.9
C=CCNC1=C2C[C@@H](C)C[C@H](OC)[C@H](O)[C@@H](C)/C=C(\C)[C@H](OC(N)=O)[C@@H](OC)/C=C\C=C(/C)C(=O)NC(=CC1=O)C2=O [Tanespimycin] + OCCn1cc(-c2cnc3nnn(Cc4ccc5ncccc5c4)c3n2)cn1 [PF04217903] (first compound 0.002 µM, partner dose 1 µM)	92.8	139	133	155	153	133	128	99.7	257	129	179	226	93.4	60.9	98	147	185	118	74.9
CC1(C)NC(=O)N(c2ccc([N+](=O)[O-])c(C(F)(F)F)c2)C1=O [nilutamide] + CN(C)S(=O)(=O)c1ccc2c(c1)/C(=C/c1cc3c([nH]1)CCCC3)C(=O)N2 [SU6656] (first compound 1 µM, partner dose 0.4 µM)	72.4	107	170	66.8	78.4	211	78.3	85.3	130	215	65.6	85.1	96.4	131	118	47.9	47.5	27.6	32.8
OCc1c[nH]c2ccccc12 [Indole-3-carbinol] + O=C(CCCCCCC(=O)Nc1ccccc1)NO [vorinostat] (first compound 0.8 µM, partner dose 0.08 µM)	165	81.4	52.5	58.6	28.5	53.4	114	83.7	436	79.8	137	85.5	52.5	175	86.4	96.8	97.7	164	87.5
Cc1cc(N2CCOCC2)cc2[nH]c(-c3c(NC[C@@H](O)c4cccc(Cl)c4)cc[nH]c3=O)nc12 + C[C@@H]1CCN(C(=O)CC#N)C[C@@H]1N(C)c1ncnc2[nH]ccc12 [CP690550] (first compound 0.2 µM, partner dose 1 µM)	116	44.3	57.9	164	160	147	113	105	149	80.9	93.9	144	48.4	127	91.8	142	116	40.2	32.5
Cn1nnc2c(C(N)=O)ncn2c1=O [temozolomide] + NC(=O)Nc1cc(-c2cccc(F)c2)sc1C(=O)N[C@H]1CCCNC1 [AZD7762] (first compound 2 µM, partner dose 0.02 µM)	73	153	471	133	59.6	97.7	88.2	131	120	88	95.3	106	121	49.4	95.5	60.2	69.3	233	64.8
Cn1nnc2c(C(N)=O)ncn2c1=O [temozolomide] + OCCn1cc(-c2cnc3nnn(Cc4ccc5ncccc5c4)c3n2)cn1 [PF04217903] (first compound 2 µM, partner dose 1 µM)	64.1	83.2	261	135	49.2	117	123	82.9	184	101	105	91	68.7	38.8	103	54.4	44.1	56.6	226

Full records, quoted from the list. Order of values: cleaved PARP positive nuclei fraction (501Mel) [%] | cleaved PARP positive nuclei fraction (A101D) [%] | cleaved PARP positive nuclei fraction (A2058) [%] | cleaved PARP positive nuclei fraction (A375) [%] | cleaved PARP positive nuclei fraction (C32) [%] | cleaved PARP positive nuclei fraction (CBRC008) [%] | cleaved PARP positive nuclei fraction (CBRC013) [%] | cleaved PARP positive nuclei fraction (CBRC014) [%] | cleaved PARP positive nuclei fraction (CBRC016) [%] | cleaved PARP positive nuclei fraction (CBRC017) [%] | cleaved PARP positive nuclei fraction (COLO792) [%] | cleaved PARP positive nuclei fraction (COLO800) [%] | cleaved PARP positive nuclei fraction (COLO829) [%] | cleaved PARP positive nuclei fraction (G361) [%] | cleaved PARP positive nuclei fraction (IPC-298) [%] | cleaved PARP positive nuclei fraction (IST-MEL1) [%] | cleaved PARP positive nuclei fraction (LB2518-MEL) [%] | cleaved PARP positive nuclei fraction (LOXIMVI) [%] | cleaved PARP positive nuclei fraction (MEL-HO) [%]
COc1cc(Nc2ncc(F)c(Nc3ccc4c(n3)NC(=O)C(C)(C)O4)n2)cc(OC)c1OC [Tamatinib] + O=C(Nc1cccc(Cl)c1)Nc1ncc(CCNc2ncnc3ccsc23)s1 [SNS314] (first compound 0.4 µM, partner dose 0.0008 µM) reads 460 | 416 | 85.4 | 104 | 103 | 94 | 125 | 93.5 | 119 | 108 | 199 | 50.1 | 133 | 78.5 | 52.8 | 65.2 | 242 | 97.5 | 33.8
COCC[n+]1c2c(n(Cc3cnccn3)c1C)C(=O)c1ccccc1C2=O + O=C(Nc1cccc(Cl)c1)Nc1ncc(CCNc2ncnc3ccsc23)s1 [SNS314] (first compound 0.0004 µM, partner dose 0.0008 µM) reads 83.3 | 20.3 | 181 | 126 | 60 | 1250 | 111 | 76.2 | 120 | 102 | 71 | 74.5 | 115 | 44.4 | 142 | 84.5 | 214 | 154 | 29.9

From the supplement of paper PMC4604168 (melanoma cell lines)
